Entries after “also recorded” stand apart in the source; their conditions may differ.

These results are taken from US11685954B2, “Biomarkers predictive of endocrine resistance in breast cancer” (Dana-Farber Cancer Institute, Inc., priority 2016, dated 2023).

In experiment [1] the test system is CSK-null T47D and MCF7 cells. Put plainly: Relative cell viability of control (AAVS1) and CSK-null cells after ER antagonist treatment for 5 days. Particulars: hormone-depleted medium plus vehicle.
Experiment [2] deals with breast cancer PDX models with CSK CNV loss. Particulars: BCaPE data; compared with models without CSK loss; cited from earlier work.

Turning to `CC/C(=C(\c1ccccc1)c1ccc(OCCN(C)C)cc1)c1ccccc1` [tamoxifen], the “sensitivity of CSK-null cells (relative cell viability)” value in experiment [1] was “completely resistant; also recorded: but not”. Besides, the “IC50 in PDX models with CSK CNV loss” value in experiment [2] is reported as “higher”.
